In patent US20190300897A1 (INSTITUTE OF GENETICS AND DEVELOPMENTAL BIOLOGY CHINESE …, published 2019):
Results are given in words; binding and its absence hold for the method and conditions named. Binding seen in cells or lysates may run through a third protein. Some binding calls cover weakened binding; strength is not graded here. Sequences can lack the tags named with a protein. One block for each binder: values may come before it.

Experiments:
[1] = molecular target: T1, MBP-DA2 (Arabidopsis, UniProt Q93YV5 1-401); assay: in vitro pull-down, MBP-DA2 on amylose resin, anti-GST immunoblot
T1 construct: Used as bacterial lysate and held on amylose resin; also called DA2 expressed as a MBP fusion protein; DA2-MBP
T1 sequence: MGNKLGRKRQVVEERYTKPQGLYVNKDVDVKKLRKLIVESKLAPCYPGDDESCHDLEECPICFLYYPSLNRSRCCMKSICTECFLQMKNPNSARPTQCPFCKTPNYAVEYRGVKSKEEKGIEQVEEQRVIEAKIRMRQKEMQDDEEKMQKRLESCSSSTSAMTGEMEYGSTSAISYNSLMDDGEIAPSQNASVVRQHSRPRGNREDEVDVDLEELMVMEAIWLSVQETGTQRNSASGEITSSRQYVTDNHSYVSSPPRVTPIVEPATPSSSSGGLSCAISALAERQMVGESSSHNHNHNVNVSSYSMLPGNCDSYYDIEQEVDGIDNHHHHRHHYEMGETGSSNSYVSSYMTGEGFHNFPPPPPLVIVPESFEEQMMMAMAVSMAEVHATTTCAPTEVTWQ

[2] = molecular target: T1, MBP-DA2; assay: in vitro pull-down, MBP-DA2 on amylose resin, anti-GST immunoblot (legend of FIG. 12)
[3] = molecular target: T2, GFP-DA2 (Arabidopsis) (UniProt Q93YV5); assay: co-immunoprecipitation with GFP-Trap-A from Nicotiana benthamiana leaves, anti-Myc immunoblot
T2 sequence: T1 sequence

[4] = molecular target: T2, GFP-DA2 (Arabidopsis); assay: co-immunoprecipitation with GFP-Trap-A from Nicotiana benthamiana leaves, anti-Myc immunoblot (legend of FIG. 14)
[5] = molecular target: T2, GFP-DA2 (Arabidopsis); assay: co-immunoprecipitation from Nicotiana benthamiana leaves, anti-Myc immunoblot

B1: GST-DA1 (protein, not shown: a dimerising Fc or GST)
chain: MGWFNKIFKGSNQRLRVGNNKHNHNVYYDNYPTASHDDEPSAADTDADNDEPHHTQEPSTSEDNTSNDQENEDIDRAIALSLLEENQEQTSISGKYSMPVDEDEQLARALQESMVVGNSPRHKSGSTYDNGNAYGAGDLYGNGHMYGGGNVYANGDIYYPRPITFQMDFRICAGCNMEIGHGRFLNCLNSLWHPECFRCYGCSQPISEYEFSTSGNYPFHKACYRERYHPKCDVCSHFIPTNHAGLIEYRAHPFWVQKYCPSHEHDATPRCCSCERMEPRNTRYVELNDGRKLCLECLDSAVMDTMQCQPLYLQIQNFYEGLNMKVEQEVPLLLVERQALNEAREGEKNGHYHMPETRGLCLSEEQTVSTVRKRSKHGTGKWAGNITEPYKLTRQCEVTAILILFGLPRLLTGSILAHEMMHAWMRLKGFRTLSQDVEEGICQVMAHKWLDAELAAGSTNSNAASSSSSSQGLKKGPRSQYERKLGEFFKHQIESDASPVYGDGFRAGRLAVHKYGLRKTLEHIQMTGRFPV
binding [1]: binds
binding [2]: binds

B3: GST-DA1-C (protein, not shown: a dimerising Fc or GST)
chain: HPKCDVCSHFIPTNHAGLIEYRAHPFWVQKYCPSHEHDATPRCCSCERMEPRNTRYVELNDGRKLCLECLDSAVMDTMQCQPLYLQIQNFYEGLNMKVEQEVPLLLVERQALNEAREGEKNGHYHMPETRGLCLSEEQTVSTVRKRSKHGTGKWAGNITEPYKLTRQCEVTAILILFGLPRLLTGSILAHEMMHAWMRLKGFRTLSQDVEEGICQVMAHKWLDAELAAGSTNSNAASSSSSSQGLKKGPRSQYERKLGEFFKHQIESDASPVYGDGFRAGRLAVHKYGLRKTLEHIQMTGRFPV
binding [1]: binds

Other lines, results leading:

binding [3]: binds
binding [4]: binds
B2: Myc-DA1 (protein, not shown: small tags and cut ends)
chain: B1 chain

binding [5]: binds
B4: Myc-DA1-C (protein, not shown: small tags and cut ends)
chain: B3 chain

binding [1]: binds
B5: GST-DA1-LIM+C (protein, not shown: a dimerising Fc or GST)
chain: RICAGCNMEIGHGRFLNCLNSLWHPECFRCYGCSQPISEYEFSTSGNYPFHKACYRERYHPKCDVCSHFIPTNHAGLIEYRAHPFWVQKYCPSHEHDATPRCCSCERMEPRNTRYVELNDGRKLCLECLDSAVMDTMQCQPLYLQIQNFYEGLNMKVEQEVPLLLVERQALNEAREGEKNGHYHMPETRGLCLSEEQTVSTVRKRSKHGTGKWAGNITEPYKLTRQCEVTAILILFGLPRLLTGSILAHEMMHAWMRLKGFRTLSQDVEEGICQVMAHKWLDAELAAGSTNSNAASSSSSSQGLKKGPRSQYERKLGEFFKHQIESDASPVYGDGFRAGRLAVHKYGLRKTLEHIQMTGRFPV
